Assay [1] addresses T1, PPP1R2, endogenous in human sperm (human (endogenous in sperm)) (UniProt P41236).
T1 sequence: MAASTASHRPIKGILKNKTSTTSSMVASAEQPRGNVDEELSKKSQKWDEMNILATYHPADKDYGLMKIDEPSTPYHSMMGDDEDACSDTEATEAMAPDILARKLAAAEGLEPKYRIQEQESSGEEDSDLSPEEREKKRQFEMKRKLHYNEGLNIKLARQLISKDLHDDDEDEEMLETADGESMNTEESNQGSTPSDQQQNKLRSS
Put plainly: affinity purification with mass spectrometry; immunoprecipitation with sheep or rabbit anti-PPP1R2 on Dynabeads Protein G from human ejaculated sperm extracts (RIPA; heat-stable extracts by the results), overnight 4 C; bands analysed by Orbitrap Velos MS.

Sequences of proteins named here, by UniProt entry; tags and fusion partners are left off. A change or cut given only in a name is not applied to a line headed by its entry. A line that says so, or that is headed by a name, gives the form on record, which may keep a tag or linker.
PPP1CC2, endogenous in human sperm (P36873-2, form named): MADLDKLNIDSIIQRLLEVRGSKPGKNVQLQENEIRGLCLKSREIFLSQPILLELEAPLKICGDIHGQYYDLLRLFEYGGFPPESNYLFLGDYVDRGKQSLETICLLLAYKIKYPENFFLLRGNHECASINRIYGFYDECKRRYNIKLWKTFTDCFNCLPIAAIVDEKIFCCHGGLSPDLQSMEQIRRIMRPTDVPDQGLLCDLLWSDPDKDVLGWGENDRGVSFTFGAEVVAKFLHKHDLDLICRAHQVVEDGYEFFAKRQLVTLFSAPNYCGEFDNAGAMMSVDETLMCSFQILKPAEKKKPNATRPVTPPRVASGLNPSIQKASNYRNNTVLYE

The target of assay [2] is T2, PPP1R2P3, endogenous in human sperm (human (endogenous in sperm)) (UniProt Q6NXS1).
T2 sequence: T1 sequence with G34R, N35S, M50I, D62G, T73P, S87R, A91T, R102K, K143R
Described as above.

Here are results for 1 substance from paper PMC3606321.

Substitutions are numbered along the chain they refer to. These are yes or no findings as the source states them, for the method shown. Binding seen in cells or lysates may run through a third protein. Here binding means that the protein was enriched with, or labelled near, the bait; the list need not be complete.

For the substance “PPP1CC2, endogenous in human sperm (from UniProt P36873-2 1-337) (enzyme)”, the binding entry in assay [1] and in assay [2] was “binds” each time.
